Reference: PubChem BioAssay AID504804 (Drosophila RNAi Screening Center, 2011)

Aim: 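Knock-downs shielding fly cells from apoptosis caused by DNA damage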 (primary screen)
System: Drosophila Kc cells
Reagents: long dsRNA against Drosophila genes, 0.5 µg dsRNA per well
Timing: 96 h (48 h knock-down, then 48 h drug)
Challenge: doxorubicin 5 µg/ml for 48 h, added 48 h after dsRNA
Measured: 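Viability measured as cellular ATP by luminescence after 48 h knock-down then 48 h doxorubicin at 5 µg/ml; unnormalised plate counts for each replicate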
Scale: raw ATP luminescence: higher = more viable cells, protection from doxorubicin
Active means: 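z-score of 2 or more over plate mean in both duplicates, retained only when retests and separate dsRNAs confirm the protection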
In all, the deposit lists about 19,000 reagents; below is a random part of those that have a named target and a result. Of all reagents, 47 (0.25%) were called active. 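Signals are raw, not normalised; exact z-scores behind calls not deposited; actives needed confirmation, so some wells reaching 2 SD are inactive.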 Unmarked entries are inactive.

{"gene": "CG17127", "amplicon": "DRSC02581", "raw ATP luminescence, replicate 1": 38827, "raw ATP luminescence, replicate 2": 68563}
{"gene": "CG32452", "amplicon": "DRSC11581", "raw ATP luminescence, replicate 1": 58117, "raw ATP luminescence, replicate 2": 59560}
{"gene": "CG13078", "amplicon": "DRSC02182", "raw ATP luminescence, replicate 1": 60143, "raw ATP luminescence, replicate 2": 52790}
{"gene": "TAF1B", "amplicon": "DRSC16001", "raw ATP luminescence, replicate 1": 59160, "raw ATP luminescence, replicate 2": 21100}
{"gene": "RpL39 (Ribosomal protein L39)", "amplicon": "DRSC04651", "raw ATP luminescence, replicate 1": 18950, "raw ATP luminescence, replicate 2": 30570}
{"gene": "CG30183", "amplicon": "DRSC04450", "raw ATP luminescence, replicate 1": 51013, "raw ATP luminescence, replicate 2": 53573}
{"gene": "CG30183", "amplicon": "DRSC04472", "raw ATP luminescence, replicate 1": 55707, "raw ATP luminescence, replicate 2": 52560}
{"gene": "CG15422", "amplicon": "DRSC00436", "raw ATP luminescence, replicate 1": 26293, "raw ATP luminescence, replicate 2": 32257}
{"gene": "CCT3 (Chaperonin containing TCP1 subunit 3)", "amplicon": "DRSC16602", "raw ATP luminescence, replicate 1": 47873, "raw ATP luminescence, replicate 2": 46383}
{"gene": "Pde9 (Phosphodiesterase 9)", "amplicon": "DRSC19746", "raw ATP luminescence, replicate 1": 3.24e5, "raw ATP luminescence, replicate 2": 2.80e5}
{"gene": "Pde9 (Phosphodiesterase 9)", "amplicon": "DRSC19874", "raw ATP luminescence, replicate 1": 3.64e5, "raw ATP luminescence, replicate 2": 3.17e5}
{"gene": "Pde9 (Phosphodiesterase 9)", "amplicon": "DRSC19875", "raw ATP luminescence, replicate 1": 3.35e5, "raw ATP luminescence, replicate 2": 3.51e5}
{"gene": "Pde9 (Phosphodiesterase 9)", "amplicon": "DRSC19876", "raw ATP luminescence, replicate 1": 3.40e5, "raw ATP luminescence, replicate 2": 3.82e5}
{"gene": "CG11085", "amplicon": "DRSC19374", "raw ATP luminescence, replicate 1": 3.48e5, "raw ATP luminescence, replicate 2": 2.93e5}
{"gene": "Atat (alpha-tubulin acetylase)", "amplicon": "DRSC10392", "raw ATP luminescence, replicate 1": 36943, "raw ATP luminescence, replicate 2": 35117}
{"gene": "Ir64a (Ionotropic receptor 64a)", "amplicon": "DRSC09759", "raw ATP luminescence, replicate 1": 70037, "raw ATP luminescence, replicate 2": 80923}
{"gene": "Ir64a (Ionotropic receptor 64a)", "amplicon": "DRSC09760", "raw ATP luminescence, replicate 1": 78580, "raw ATP luminescence, replicate 2": 77823}
{"gene": "Myo95E (Myosin 95E)", "amplicon": "DRSC15821", "raw ATP luminescence, replicate 1": 51320, "raw ATP luminescence, replicate 2": 43390}
{"gene": "snsl (snustorr snarlik)", "amplicon": "DRSC00543", "raw ATP luminescence, replicate 1": 28233, "raw ATP luminescence, replicate 2": 35927}
{"gene": "Srpk79D (Serine-arginine protein kinase at 79D)", "amplicon": "DRSC11668", "raw ATP luminescence, replicate 1": 19970, "raw ATP luminescence, replicate 2": 20227}
{"gene": "Srpk79D (Serine-arginine protein kinase at 79D)", "amplicon": "DRSC11856", "raw ATP luminescence, replicate 1": 72553, "raw ATP luminescence, replicate 2": 72533}
{"gene": "Irp-1A (Iron regulatory protein 1A)", "amplicon": "DRSC16719", "raw ATP luminescence, replicate 1": 45330, "raw ATP luminescence, replicate 2": 32910}
{"gene": "CG9727", "amplicon": "DRSC12585", "raw ATP luminescence, replicate 1": 46063, "raw ATP luminescence, replicate 2": 20517}
{"gene": "CG9436", "amplicon": "DRSC05005", "raw ATP luminescence, replicate 1": 70157, "raw ATP luminescence, replicate 2": 69453}
{"gene": "speck", "amplicon": "DRSC04608", "raw ATP luminescence, replicate 1": 61897, "raw ATP luminescence, replicate 2": 58617}
{"gene": "CG16772", "amplicon": "DRSC02516", "raw ATP luminescence, replicate 1": 46823, "raw ATP luminescence, replicate 2": 50900}
{"gene": "amon (amontillado)", "amplicon": "DRSC13784", "raw ATP luminescence, replicate 1": 1.94e5, "raw ATP luminescence, replicate 2": 2.00e5}
{"gene": "amon (amontillado)", "amplicon": "DRSC16900", "raw ATP luminescence, replicate 1": 38090, "raw ATP luminescence, replicate 2": 37520}
{"gene": "Naa80 (N(alpha)-acetyltransferase 80)", "amplicon": "DRSC16429", "raw ATP luminescence, replicate 1": 56357, "raw ATP luminescence, replicate 2": 54387}
{"gene": "Vha36-3 (Vacuolar H[+] ATPase 36kD subunit 3)", "amplicon": "DRSC18615", "raw ATP luminescence, replicate 1": 46080, "raw ATP luminescence, replicate 2": 42390}
{"gene": "Ns4 (Nucleostemin 4)", "amplicon": "DRSC03199", "raw ATP luminescence, replicate 1": 91320, "raw ATP luminescence, replicate 2": 73330}
{"gene": "E(z) (Enhancer of zeste)", "amplicon": "DRSC11147", "raw ATP luminescence, replicate 1": 30063, "raw ATP luminescence, replicate 2": 31407}
{"gene": "CG7140", "amplicon": "DRSC11799", "raw ATP luminescence, replicate 1": 61300, "raw ATP luminescence, replicate 2": 58370}
{"gene": "DhpD (Dihydropterin deaminase)", "amplicon": "DRSC12288", "raw ATP luminescence, replicate 1": 20307, "raw ATP luminescence, replicate 2": 24587}
{"gene": "Cpr92F (Cuticular protein 92F)", "amplicon": "DRSC15819", "raw ATP luminescence, replicate 1": 57170, "raw ATP luminescence, replicate 2": 73810}
{"gene": "Cf2 (Chorion factor 2)", "amplicon": "DRSC00744", "raw ATP luminescence, replicate 1": 12733, "raw ATP luminescence, replicate 2": 16840}

An excerpt taken from the entries so far:
{"gene": "Ns4 (Nucleostemin 4)", "amplicon": "DRSC03199", "raw ATP luminescence, replicate 1": 91320, "raw ATP luminescence, replicate 2": 73330}
{"gene": "E(z) (Enhancer of zeste)", "amplicon": "DRSC11147", "raw ATP luminescence, replicate 1": 30063, "raw ATP luminescence, replicate 2": 31407}
